According to patent publication US20220184052A1, “COMPOSITION COMPRISING FEXOFENADINE” (Cellix Bio Private Limited, priority 2020, published 2022):
Where a name gives a salt, the structure may show the parent alone.

Assay: Observations during formulation development (crystallisation, RC-A impurities, viscosity)
Assay type: physicochemical
Conditions: depending upon the solvent used
Text: During experimentation, it could also be noted that when PEG-400 is used as one of the solvent, it results in higher amounts of RC-A impurities. When propylene glycol (PG) is used in place of PEG-400, it affords dramatic reduction of RC-A impurities as compared to PEG-400.

## CC(C)(C(=O)O)c1ccc(C(O)CCCN2CCC(C(O)(c3ccccc3)c3ccccc3)CC2)cc1 (stereo not shown) [API, Fexofenadine HCl]
  Polymorphic nature / conversion into crystalline form: tendency to convert into crystalline form
